The supplement of paper PMC5949888
Most values lie at the floor of the assay. Slopes are relative: functional sequences can read slightly below zero.

These substances were tested on Saccharomyces cerevisiae PS128 hsf1 delta, HSF1(1-493) fusion (assay: growth estimate (transactivation domain function in HSF1 fusion, heat-shock survival) (a.u. (slope of normalised read count over time)); higher = stronger growth at 37°C, i.e. more transactivation activity). Conditions: library: random library.

Substance | growth estimate
TCAQQTV | < -0.25
SPKEPGCRFVVSLLGFL | < -0.25
RRGMESVVMEHLSLIVLPHQ | < -0.25
QCACLNVCRRLVNSNRRHR | < -0.25
SISGRFIGGLGNRRLTWYRN | < -0.25
VLLAGD | < -0.25
CLGLVRYYSLSIRHCRSKTT | < -0.25
GWWATLGRFQSR | < -0.25
LGPIV | < -0.25
VYMI | < -0.25
RSRGHVKVEDYGVEVKLHVH | < -0.25
VGCRTCPRSP | < -0.25
DCAS | < -0.25
IGLCAVTIAGIWVEH | < -0.25
AKYESVRTIDSDAVRVNECD | -0.198
RPLRRVKKNFSASADGTERG | < -0.25
NRTYRNQEDPVIT | < -0.25
YREGQAHARMELSVLGG | < -0.25
FAS | < -0.25
CRVKPSVGSRMIKADRSGKP | < -0.25
MVWGNVRTSWKQHSLP | < -0.25
FRTSYSG | < -0.25
QSRFSYRN | < -0.25
LDHQIRAKRVLCAGACIVEG | < -0.25
HRSSAKPLGKNKDNSSTWMQ | < -0.25
RGLFRRQV | < -0.25

Substance | growth estimate
FLTPHCALLMSRC | -0.246
LQVSRIGTGQTACLLGTTGR | < -0.25
SRTVNVVGIEVKLIAVPAFR | < -0.25
VQMRQKQGTAQFGFEPTNTR | < -0.25
RGPLLYRYYEQ | < -0.25
MSGLE | < -0.25
QVVAGLRYNSNSAYQFVGLG | < -0.25
GMCGH | < -0.25
RNASFMSKVIYYCDGCRHSY | -0.245
AWLLQGWERRSGRAVLSESP | -0.228
SVGAEGA | < -0.25
LSWAVTDVYCTERNISSIVR | < -0.25
RVAEKPGCLWALGVAHDDLQ | -0.243
YPEWSERHGSAAAE | < -0.25
EGDSTGQYSQKNHPRQRFDG | < -0.25
HSP | < -0.25
GYPLLCYFSAVSIQERKQAE | < -0.25
AVHRLYAVGKGDLGDLKWTG | < -0.25
RHGLRH | -0.239
LGQARKRLVAVVSSISGRRQ | < -0.25
KGTSSGKQKYASELRTKSWP | < -0.25
GGRRPGTSRVRSSTEK | < -0.25
YLQRELCHR | < -0.25
AVVWSVPIAP | < -0.25
RSLSKWPGCRKSTYTTNRAP | < -0.25
YIKLKI | < -0.25

Substance | growth estimate
LMNHRVTLFKGFKSG | < -0.25
SSSWSWHMGDHFPLKGPIIS | < -0.25
VLKSAGYQDAVT | < -0.25
FNQIA | < -0.25
TRRMGVLENLGTWPGRLESF | < -0.25
SFTTWGLKRASPENKFQRVT | < -0.25
KQK | < -0.25
ARLVEWCNGQWRGK | < -0.25
IPRALIRRFMHRGKPYGSRP | < -0.25
ESYPVGGRPQMFEFVERV | < -0.25
HISSIARMIRSGWKLPPCEV | < -0.25
TRDG | < -0.25
IKEYRSTSWLSVTL | < -0.25
ADS | < -0.25
NHKEIPTQRLGIVDLVQALG | < -0.25
RFGGGTKFAAS | < -0.25
TSRSV | < -0.25
GSWQSNGHHIFAFGVGSPWL | < -0.25
RVRT | < -0.25
FGQYGRNLLVLRR | < -0.25
DKRRGPLRKR | < -0.25
FEGSCVSLSARTEVGHNLMR | < -0.25
GRNMQDREPAS | < -0.25
IERRKRLVRSAGRLRIVIWL | < -0.25
KKVDSMRWATLMRTLYETTR | < -0.25
TTRLPGKHSI | < -0.25

Substance | growth estimate
DGMIW | < -0.25
GLYRSKRGIMHRLDEPPSRR | < -0.25
LYYEMKFGLLQLLQLVLENA | < -0.25
SDGGQEA | < -0.25
PVILTKPGHLLFEIIETDLA | < -0.25
SHSQP | < -0.25
SDTPGRTGWECGCNQLTVPS | < -0.25
NSARVFCYTRAASCLTWPCD | < -0.25
TVQVCPTMGTGLSEQVLRGR | < -0.25
LSTMMSGSNEFRPEFHQGCD | < -0.25
AAILRWGLLDDDNPAPRPIS | < -0.25
HADSANSFGRLLSPTLVTRT | < -0.25
RVIPTVALCA | < -0.25
EVTEVVWVYTVVISGCNTH | < -0.25
THLVA | < -0.25
RCIAADCRDHDGSCTRR | < -0.25
SVRDDLNWILAHYAGLLRRL | < -0.25
VGTSSFTVGFAGTDAS | < -0.25
SPKMPASTRGHTT | < -0.25
SPI | < -0.25
PLIMVSSVGRFVEAFVDTTS | -0.229
QWITSCGESLPSCAMHRSAP | -0.245
TPSNSPVHRASLRCCIHLGN | < -0.25
LARGIGGREYSYIARPNPIA | < -0.25
AVVGRCWMY | < -0.25
RGERLAGTWYFI | -0.201

Substance | growth estimate
SMTPMVIIDSRRTIVV | < -0.25
FWSVVTCGTPR | < -0.25
WIDRLCMTHGLSLKLRGGIG | < -0.25
RSLRRGIPAS | < -0.25
KTDGQVTNKLAALVQLWC | < -0.25
IYGVRVEST | < -0.25
GSIDSKRRIATGIRAKDVLW | < -0.25
LIMRTRVG | < -0.25
GPWWKVGQTCEGRTI | < -0.25
QGGPNSLTQGV | < -0.25
TGMIFMVFVKHCINMSDRGP | -0.248
TLTEHATSKEQHAVRLEWSS | < -0.25
ESMPQISTSNGKSIG | < -0.25
FIGLRAERPMLRAPSGKRLP | -0.245
ESSEVPVTADIPTARVAHRE | < -0.25
VPDFIQRAHPKWPKFSWRQC | < -0.25
PMDAAMSERV | < -0.25
INPVY | < -0.25
PISIF | < -0.25
THRGPVRMIRGRPKKAS | -0.248
ECM | < -0.25
DTP | < -0.25
FTV | < -0.25
TVYGRPLPDERVRSPSRRRG | < -0.25
YLTSHGLTRHPMFYEILSVR | < -0.25
MEAKKIIR | < -0.25

A second format for some results above.
FRTSYSG
  growth estimate: < -0.25
EGDSTGQYSQKNHPRQRFDG
  growth estimate: < -0.25
VLKSAGYQDAVT
  growth estimate: < -0.25
IKEYRSTSWLSVTL
  growth estimate: < -0.25

(further entries)

Substance | growth estimate
GNTAIIRTSIAECCWHMRNG | < -0.25
IDKCGL | < -0.25
INCAPSSQVCAAQGWKNWLY | -0.201
SFIYRQSNSVEPGIQSLSPR | < -0.25
VQAVG | < -0.25
AMDRRRLGLRRELSKKGSID | < -0.25
ILKRRSA | < -0.25
RVNGAKLQRRVL | < -0.25
SVNRGQVHEAYTNRAYSIRG | < -0.25
QGL | < -0.25
ELFQRLRLEIAEAIGGR | < -0.25
GEYSSFAVWLRPEVDFLEGT | -0.0514
SDREHRACENA | < -0.25
LESTERFRCLTRLAISVERR | < -0.25
PRN | < -0.25
IQARQRGY | < -0.25
WRQTARVRT | < -0.25
HFQV | < -0.25
QYGSHPKCLSVT | < -0.25
SSFSVPPACLMEYRQAGTCS | < -0.25
YRSHTPIQLVTANRPVASTR | < -0.25
TMQPGQRRGFVRGVGAA | < -0.25
ANGGRTDS | < -0.25
SLTLAGVAI | < -0.25
SARSFYLSSNIWESWQYSKD | < -0.25
GQSVETGTLRVA | < -0.25

Reformatted in markdown: part of the list above.

| Substance | growth estimate |
| --- | --- |
| LMNHRVTLFKGFKSG | < -0.25 |
| SSSWSWHMGDHFPLKGPIIS | < -0.25 |
| VLKSAGYQDAVT | < -0.25 |

(list continues)

Substance | growth estimate
RAGMYYFTRGGPLVVAR | < -0.25
HKSMLNGREVETPVHLGVCQ | < -0.25
GPGCLMERCELEY | < -0.25
SITDSPGKVTLAMGEGPVTA | < -0.25
CCDGSGGNFVMRVYSIRNCP | < -0.25
VWLSIKIGKLLLQL | < -0.25
QWTVIVSSAIERIRRSSQLR | < -0.25
RNNIVLTHYRVHLFTFYNKF | -0.243
RSDDPAVLRFSAKVRYAFQS | < -0.25
QTRFVLMRPIDLGRVIFEA | -0.231
ASRGEEARQATDLE | < -0.25
YFTWYRIRDDDEDQ | < -0.25
GLVWQHPSFWST | < -0.25
MGLLRGE | < -0.25
VQGMIGATSSAIDSALHRC | < -0.25
MRQSYLAG | < -0.25
DGPY | < -0.25
ASDEYGLLGPGTAGRSQDTA | < -0.25
PGWLSHRMQGYVHR | < -0.25
AMRRYKVRGPTELLLNVPPG | < -0.25
GPSHVLSVSMGSRACGQAIL | < -0.25
LGFRKFLYCMGHSW | < -0.25
RAVERCVVR | < -0.25
TLNGFCTVWVLMCVSLPELH | < -0.25
SIGNPVQHSV | < -0.25
GRDRLTPEYAYSRKFVGCSA | < -0.25

Substance | growth estimate
RLFGVFVVGL | < -0.25
VVYSKPRPLQYATLFSLKAG | < -0.25
HRAEVSDAIVEKRQLRQLGR | -0.176
VFRAIGLYRCCTREATVCSK | < -0.25
YLGLPQISQAGVCDRGYWQP | < -0.25
LAQLFRG | < -0.25
GGFRARTYHLDRHDSTSCTY | < -0.25
RAEQYLKQQP | < -0.25
WGGAEMSE | < -0.25
QPNSRL | < -0.25
IDRLIISLLGQYWLRRLFWC | < -0.25
GTPTRPSGAH | -0.219
PDSRSEDEAGTFLYWTQFRP | < -0.25
GLNSS | -0.239
RDCVLRAGVTSIYQVITRRH | < -0.25
PEIAPWLGLYSDYHTYCLGC | < -0.25
YQRESRVN | < -0.25
INGHYESACTHNDKDPKGPG | < -0.25
RSSCPVSLHLQK | < -0.25
